According to patent publication US8013123B2 (B.R.A.H.M.S. GmbH, priority 2004, dated 2011):

System: enkephalin-fp
Test: Immunoassay for the quantitative determination of enkephalin-fp (P571-coated tubes, tagged anti-PTE18)
Parameters: species or system human
Details: healthy controls

B1: proenkephalin: precursor of the enkephalins, Sequence ID 1, including its fragments (protein)
chain: ECSQDCATCSYRLVRFADINFLACVMECEGKLPSLKIWETCKELLQLSKPELPQDGTSTLRENSKPEESHLLAKRYGGFMKRYGGFMKKMDELYPMEPEEEANGSEILAKRYGGFMKKNAEEDDSLANSSDLLKELLETGDNRERSHHQDGSDNEEEVSKRYGGFMRGLKRSPQLEDEAKELQKRYGGFMRRVGRPEWWMDYQKRYGGFLKRFAEALPSDEEGESYSKEVPEMEKRYGGFMRF
liquor to plasma ratio (CSF median over plasma median): 130 fold
immune reactivity limit for 95% of healthy control individuals (plasma): below 109 pg/ml
median immune reactivity in plasma of healthy control individuals (plasma): 74 pg/mL
